Results are given in words; binding and its absence hold for the method and conditions named. For part of these data: Binding seen in cells or lysates may run through a third protein. Some entries that bind do so weakly or less than the wild type.
What was measured:
[1] = target: leucine-rich repeat kinase 2 (LRRK2) (UniProt Q5S007); test: pull-down; GST pulldown assay, in vitro (fig. S2G); which partner bore GST is not told in the text shown
[2] = target: leucine-rich repeat kinase 2 (LRRK2) (UniProt Q5S007); test: cryo-EM structure; complex reconstituted by mixing LRRK2, Rab29EM, GTP analog (GppNHp), ATP and Mg2+; three oligomeric assemblies (monomer, dimer, tetramer); C2 symmetry imposed for dimer and tetramer; both purified
[3] = target: leucine-rich repeat kinase 2 (LRRK2) (UniProt Q5S007); test: cryo-EM 2D classification; Rab29 T71A/S72A–LRRK2 complex; 2D classification performed with cross-correlation (fig. S9E); both purified

Chains of the proteins cited; added tags and fusions are not shown.
UniProt Q5S007: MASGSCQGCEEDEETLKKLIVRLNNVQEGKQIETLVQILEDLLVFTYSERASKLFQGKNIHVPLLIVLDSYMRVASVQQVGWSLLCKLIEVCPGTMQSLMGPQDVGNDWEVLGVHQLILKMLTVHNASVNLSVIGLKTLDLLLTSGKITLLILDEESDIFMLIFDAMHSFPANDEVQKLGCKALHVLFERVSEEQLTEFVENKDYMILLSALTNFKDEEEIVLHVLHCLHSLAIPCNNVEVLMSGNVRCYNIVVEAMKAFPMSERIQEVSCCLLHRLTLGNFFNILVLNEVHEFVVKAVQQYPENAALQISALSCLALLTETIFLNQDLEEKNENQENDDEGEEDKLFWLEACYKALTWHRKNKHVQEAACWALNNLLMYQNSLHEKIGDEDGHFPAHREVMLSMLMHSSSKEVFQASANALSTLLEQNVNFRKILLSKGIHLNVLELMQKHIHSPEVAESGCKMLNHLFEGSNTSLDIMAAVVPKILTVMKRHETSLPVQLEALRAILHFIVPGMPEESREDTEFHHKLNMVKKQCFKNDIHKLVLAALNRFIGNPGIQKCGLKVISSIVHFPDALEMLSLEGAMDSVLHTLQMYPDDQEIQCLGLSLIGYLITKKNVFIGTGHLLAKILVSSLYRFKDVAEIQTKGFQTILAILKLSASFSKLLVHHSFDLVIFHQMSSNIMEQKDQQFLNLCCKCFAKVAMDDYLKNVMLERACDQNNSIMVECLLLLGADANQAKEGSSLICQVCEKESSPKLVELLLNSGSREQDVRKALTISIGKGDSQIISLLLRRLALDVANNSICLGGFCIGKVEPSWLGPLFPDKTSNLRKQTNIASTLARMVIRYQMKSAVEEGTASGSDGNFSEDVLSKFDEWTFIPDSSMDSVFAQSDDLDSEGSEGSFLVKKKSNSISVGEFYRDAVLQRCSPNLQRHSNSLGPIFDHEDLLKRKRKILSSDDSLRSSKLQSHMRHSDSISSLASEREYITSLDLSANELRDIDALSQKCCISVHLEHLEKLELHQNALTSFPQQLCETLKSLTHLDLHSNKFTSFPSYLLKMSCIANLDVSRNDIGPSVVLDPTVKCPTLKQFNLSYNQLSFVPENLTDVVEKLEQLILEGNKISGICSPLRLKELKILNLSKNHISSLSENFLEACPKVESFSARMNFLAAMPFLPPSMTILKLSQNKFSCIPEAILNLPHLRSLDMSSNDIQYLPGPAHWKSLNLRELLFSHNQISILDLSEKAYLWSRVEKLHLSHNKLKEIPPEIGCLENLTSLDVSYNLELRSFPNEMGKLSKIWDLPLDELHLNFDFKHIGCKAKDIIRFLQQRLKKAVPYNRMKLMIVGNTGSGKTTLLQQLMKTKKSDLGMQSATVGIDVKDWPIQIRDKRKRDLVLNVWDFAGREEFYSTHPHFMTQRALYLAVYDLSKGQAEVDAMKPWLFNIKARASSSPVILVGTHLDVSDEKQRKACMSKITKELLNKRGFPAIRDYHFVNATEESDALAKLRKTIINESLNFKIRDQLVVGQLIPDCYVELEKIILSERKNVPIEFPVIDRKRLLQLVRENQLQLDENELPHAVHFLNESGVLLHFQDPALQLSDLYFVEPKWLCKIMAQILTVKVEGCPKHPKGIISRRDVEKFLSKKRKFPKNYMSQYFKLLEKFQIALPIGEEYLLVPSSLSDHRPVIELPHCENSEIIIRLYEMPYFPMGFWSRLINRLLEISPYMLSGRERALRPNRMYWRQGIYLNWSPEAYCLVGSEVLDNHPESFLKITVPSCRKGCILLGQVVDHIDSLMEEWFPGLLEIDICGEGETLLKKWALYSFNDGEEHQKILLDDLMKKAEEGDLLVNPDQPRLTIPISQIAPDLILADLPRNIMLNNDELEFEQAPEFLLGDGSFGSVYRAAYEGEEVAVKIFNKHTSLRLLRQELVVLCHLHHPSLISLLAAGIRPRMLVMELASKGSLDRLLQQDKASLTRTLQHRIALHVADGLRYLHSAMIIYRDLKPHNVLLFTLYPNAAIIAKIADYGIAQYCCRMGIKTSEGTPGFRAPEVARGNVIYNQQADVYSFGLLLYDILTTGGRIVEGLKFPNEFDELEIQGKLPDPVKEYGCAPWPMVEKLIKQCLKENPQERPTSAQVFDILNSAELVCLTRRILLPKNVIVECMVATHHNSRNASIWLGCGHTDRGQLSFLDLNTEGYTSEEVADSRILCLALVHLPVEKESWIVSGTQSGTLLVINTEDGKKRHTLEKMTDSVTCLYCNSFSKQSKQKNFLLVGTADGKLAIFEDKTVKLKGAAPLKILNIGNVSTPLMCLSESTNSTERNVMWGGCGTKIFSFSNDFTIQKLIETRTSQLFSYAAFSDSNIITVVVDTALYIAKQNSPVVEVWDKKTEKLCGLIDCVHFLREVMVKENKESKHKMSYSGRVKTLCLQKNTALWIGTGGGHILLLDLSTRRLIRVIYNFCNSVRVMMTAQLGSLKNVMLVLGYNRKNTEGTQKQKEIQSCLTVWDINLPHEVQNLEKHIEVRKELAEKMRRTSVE

| binding [1] | binding [2] | binding [3] | Binder |
| --- | --- | --- | --- |
| binds | binds |  | Rab29EM (Rab29 Q67L, T71A, S72A) (natural protein, Rab29, a Rab GTPase encoded in the PARK16 locus, with three point mutations; constructs are in the supplementary Materials and Methods; also called Rab29^peri) MGSRDHLFKVLVVGDAAVGKTSLVQRYSQDSFSKHYKSTVGVDFALKVLQWSDYEIVRLQLWDIAGLERFAAMTRLYYRDASACVIMFDVTNATTFSNSQRWKQDLDSKLTLPNGEPVPCLLLANKCDLSPWAVSRDQIDRFSKENGFTGWTETSVKENKNINEAMRVLIEKMMRNS |
|  |  | binds | Rab29 T71A/S72A (protein, UniProt O14966 1-177) MGSRDHLFKVLVVGDAAVGKTSLVQRYSQDSFSKHYKSTVGVDFALKVLQWSDYEIVRLQLWDIAGQERFAAMTRLYYRDASACVIMFDVTNATTFSNSQRWKQDLDSKLTLPNGEPVPCLLLANKCDLSPWAVSRDQIDRFSKENGFTGWTETSVKENKNINEAMRVLIEKMMRNS |
